Holding throughout (assay): glycan array binding signal (z-score within array); higher = stronger binding
Holding throughout (conditions): glycan notation: IUPAC condensed, linker removed

In one experiment the target is Fuc(a1-2)Gal(b1-4)Glc6S. The gist of the method: (§1)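 Negative Z-scores can be read as non-binding. The Z-score is calculated within each array and then averaged across arrays of one protein sequence at different concentrations or buffers and across linkers. Arrays, 3228 in all, were curated from the Consortium for Functional Glycomics database and kept only where the protein sequence was available.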

A further experiment addresses Fuc(a1-2)Gal(b1-4)GlcNAc. The gist of the method:
as §1

In experiment [1] the target is Fuc(a1-2)Gal(b1-4)GlcNAc(b1-2)Man. The gist of the method:
as §1

Experiment [2] deals with Fuc(a1-2)Gal(b1-4)GlcNAc(b1-2)Man(a1-3)[Fuc(a1-2)Gal(b1-4)GlcNAc(b1-2)Man(a1-6)]Man(b1-4)GlcNAc(b1-4)GlcNAc. In short, it runs like this:
as §1

In experiment [3] the target is Fuc(a1-2)Gal(b1-4)GlcNAc(b1-2)Man(a1-3)[Fuc(a1-2)Gal(b1-4)GlcNAc(b1-2)Man(a1-6)]Man(b1-4)GlcNAc(b1-4)[Fuc(a1-6)]GlcNAc. The gist of the method:
as §1

Experiment [4] has as its target Fuc(a1-2)Gal(b1-4)GlcNAc(b1-2)[Fuc(a1-2)Gal(b1-4)GlcNAc(b1-4)]Man(a1-3)[Fuc(a1-2)Gal(b1-4)GlcNAc(b1-2)Man(a1-6)]Man(b1-4)GlcNAc(b1-4)GlcNAc. The gist of the method: as §1
Experiment [5] addresses Fuc(a1-2)Gal(b1-4)GlcNAc(b1-3)Gal(b1-4)GlcNAc. In short, it runs like this: as §1
Experiment [6] addresses Fuc(a1-2)Gal(b1-4)GlcNAc(b1-3)Gal(b1-4)GlcNAc(b1-2)Man(a1-3)[Fuc(a1-2)Gal(b1-4)GlcNAc(b1-3)Gal(b1-4)GlcNAc(b1-2)Man(a1-6)]Man(b1-4)GlcNAc(b1-4)GlcNAc. In short, it runs like this: as §1
The target of experiment [7] is Fuc(a1-2)Gal(b1-4)GlcNAc(b1-3)Gal(b1-4)GlcNAc(b1-3)Gal(b1-4)GlcNAc. The gist of the method: as §1
Experiment [8] deals with Fuc(a1-2)Gal(b1-4)GlcNAc(b1-3)GalNAc. The gist of the method:
as §1

Experiment [9] addresses Fuc(a1-2)Gal(b1-4)GlcNAc(b1-3)[Fuc(a1-2)Gal(b1-4)GlcNAc(b1-6)]GalNAc. In short, it runs like this:
as §1

Experiment [10] has as its target Fuc(a1-2)Gal(b1-4)GlcNAc(b1-3)[Fuc(a1-3)[Gal(b1-4)]GlcNAc(b1-6)]Gal(b1-4)Glc. The gist of the method:
as §1

The target of experiment [11] is Fuc(a1-2)Gal(b1-4)GlcNAc(b1-6)GalNAc. In short, it runs like this: as §1
The target of experiment [12] is Fuc(a1-2)Gal(b1-4)GlcNAc6S. The gist of the method: as §1
Experiment [13] concerns the target Fuc(a1-2)Gal(b1-4)[Fuc(a1-3)]GlcNAc. The gist of the method:
as §1

Experiment [14] addresses Fuc(a1-2)Gal(b1-4)[Fuc(a1-3)]GlcNAc(b1-2)Man(a1-3)[Fuc(a1-2)Gal(b1-4)[Fuc(a1-3)]GlcNAc(b1-2)Man(a1-6)]Man(b1-4)GlcNAc(b1-4)[Fuc(a1-6)]GlcNAc. In short, it runs like this:
as §1

Experiment [15] concerns the target Fuc(a1-2)Gal(b1-4)[Fuc(a1-3)]GlcNAc(b1-2)[Fuc(a1-2)Gal(b1-4)[Fuc(a1-3)]GlcNAc(b1-4)]Man(a1-3)[Fuc(a1-2)Gal(b1-4)[Fuc(a1-3)]GlcNAc(b1-2)Man(a1-6)]Man(b1-4)GlcNAc(b1-4)GlcNAc. In short, it runs like this: as §1
The target in experiment [16] is Fuc(a1-2)Gal(b1-4)[Fuc(a1-3)]GlcNAc(b1-3)Gal(b1-4)[Fuc(a1-3)]GlcNAc. The gist of the method: as §1
Experiment [17] concerns the target Fuc(a1-2)Gal(b1-4)[Fuc(a1-3)]GlcNAc(b1-3)Gal(b1-4)[Fuc(a1-3)]GlcNAc(b1-3)Gal(b1-4)[Fuc(a1-3)]GlcNAc. In short, it runs like this: as §1
Experiment [18] deals with Fuc(a1-2)Gal(b1-4)[Fuc(a1-3)]GlcNAc(b1-3)GalNAc. In short, it runs like this:
as §1

The target in experiment [19] is Fuc(a1-2)Gal(b1-4)[Fuc(a1-3)]GlcNAc(b1-3)[Neu5Ac(a2-6)Gal(b1-4)GlcNAc(b1-6)]Gal(b1-4)Glc. In short, it runs like this:
as §1

Experiment [20] addresses Fuc(a1-2)Gal3S(b1-4)GlcNAc. In short, it runs like this:
as §1

The target in experiment [21] is Fuc(a1-2)Gal6S(b1-3)GlcNAc. The gist of the method: as §1

Some of the results follow.

B1: pilr alpha (protein)
chain: MLYGVTQPKHLSASMGGSVEIPFSFYYPWELATAPDVRISWRRGHFHRQSFYSTRPPSIHKDYVNRLFLNWTEGQKSGFLRISNLQKQDQSVYFCRVELDTRSSGRQQWQSIEGTKLSIT
As for B1, the “glycan array binding signal (z-score)” value in the experiment with Fuc(a1-2)Gal(b1-4)Glc6S is -0.407; with Fuc(a1-2)Gal(b1-4)GlcNAc, -0.108; in experiment [1] it was -0.281; in experiment [2] it was 0.694; in [3], 0.117; in [4], 0.011. The “glycan array binding signal (z-score)” value was 0.879 in experiment [5]; 0.532 in experiment [6]; -0.814 in experiment [7]; 0.009 in experiment [8]; -0.236 in experiment [9]; -0.28 in [10]. Also, the “glycan array binding signal (z-score)” value is 0.043 in experiment [11]; -0.289 in experiment [12]; -0.172 in [13]; 0.355 in [14]; -0.253 in experiment [15]; -0.303 in experiment [16]. For the same molecule, the “glycan array binding signal (z-score)” value in [17] is -0.001; in experiment [18], 1.14; in [19] it was -0.725; in [20], -0.453; in experiment [21] it was -0.236.

Values taken from the supplement of paper PMC8728848.
